Reference: PubChem BioAssay AID2549 (National Center for Advancing Translational Sciences (NCATS), 2010)
The whole screen tested about 240,000 compounds, of which about 1,300 (0.54%) were called active. Inconclusive results, whose numbers are uncertain, are shown with a selection of clear calls. Calls follow the shape of the dose curve; as a rule, active = well fitted inhibition curve with a large enough effect; inconclusive = small, poorly fitted or top-dose-only effect; inactive = flat fitted curve, though single readings scatter. Where the call is inconclusive, the potency comes from a doubtful curve fit.

Sequences of proteins named here, by UniProt entry; tags and fusion partners are left off. A change or cut given only in a name is not applied to a line headed by its entry.
UniProt P46063: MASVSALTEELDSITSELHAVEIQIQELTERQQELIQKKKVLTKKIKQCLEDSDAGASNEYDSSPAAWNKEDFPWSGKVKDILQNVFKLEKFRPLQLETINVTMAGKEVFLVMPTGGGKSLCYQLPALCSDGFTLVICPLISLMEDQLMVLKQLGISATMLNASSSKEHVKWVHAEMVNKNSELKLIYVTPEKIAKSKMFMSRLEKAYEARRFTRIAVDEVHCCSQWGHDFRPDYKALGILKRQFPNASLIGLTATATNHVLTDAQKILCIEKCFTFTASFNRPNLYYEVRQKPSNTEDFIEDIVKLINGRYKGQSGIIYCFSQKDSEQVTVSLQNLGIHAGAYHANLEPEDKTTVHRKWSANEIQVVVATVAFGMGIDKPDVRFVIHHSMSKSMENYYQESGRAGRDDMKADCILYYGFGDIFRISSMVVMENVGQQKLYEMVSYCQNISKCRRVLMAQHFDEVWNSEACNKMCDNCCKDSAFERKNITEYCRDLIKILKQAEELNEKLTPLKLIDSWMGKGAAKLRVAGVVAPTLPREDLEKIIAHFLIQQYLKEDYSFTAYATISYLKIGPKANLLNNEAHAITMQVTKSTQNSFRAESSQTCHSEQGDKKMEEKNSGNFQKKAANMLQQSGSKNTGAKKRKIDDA

Biological target: ATP-dependent DNA helicase Q1 (Homo sapiens) (UniProt P46063)
Test: qHTS Assay for Inhibitors of RecQ-Like Dna Helicase 1 (RECQ1); also: nearly all actives have a fitted effect of over 30% in size;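 as to activity, negative = inhibition: plate controls were vehicle for no effect and no enzyme for full effect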
Conditions: RECQ1 DNA unwinding, red fluorescence kinetic read; activity, negative = inhibition: at 57.3 µM (top of the series); series mostly up to 57.3 µM
Outline: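 RECQ1T1 50 nM; forked duplex (20 bp + 30-nt ss tails) 200 nM, ATP 2 mM final; pH 8.0, 2 mM MgCl2, 2.5 ug/ml poly(dI-dC); 15 min compound preincubation; discontinuous kinetic read over 2 h at RT.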
Potency is read from the fitted curve at half-maximal effect.

Structure (SMILES) | Potency | activity, negative = inhibition | outcome
Oc1cccc(Nc2nc(NCC3CCCO3)c3ccccc3n2)c1 (stereo not drawn) | inconclusive: 25.1 µM [inhibitor, partial curve] | – | –
COc1cc(NC(=O)C2CCN(S(=O)(=O)c3cccc4nonc34)CC2)cc(OC)c1 | active: 15.8 µM | – | –
O=C(O)c1ccc(/C=C/c2nc3sc4c(c3c(=O)[nH]2)CCC4)cc1 | – | inactive: -12.3% | –
CC(/C=C/c1ccco1)=N\NC(=O)c1cc(C)[nH]n1 | active: 31.6 µM | – | –
CCN(CC)CCCC(C)Nc1c2ccc(Cl)cc2nc2ccc(OC)cc12 (stereo not drawn) | inconclusive: 39.8 µM [inhibitor, single point] | – | –
CC1(C(=O)OCC(=O)N2c3ccccc3Sc3ccccc32)CC1(Cl)Cl (stereo not drawn) | inconclusive: 31.6 µM [inhibitor, single point] | – | –
CCN(CC(=O)NCc1cccs1)S(=O)(=O)c1cccc(C(C)=O)c1 | inconclusive: 1.12 µM [inhibitor, full curve] | – | –
N#CCc1ccc(NC(=O)/C=C/c2ccc([N+](=O)[O-])o2)cc1 | inconclusive: 39.8 µM [inhibitor, single point] | – | –
C#CCCCO/N=C1/[C@H]2O[C@@H]2[C@@H](O)[C@H]2[C@H]1CCn1c(=O)n(C)c(=O)n12 | – | inactive: -3.2% [at 11.5 µM] | –
CCOc1ccccc1C1CC(=O)Nc2cc(OC)c(OC)c(OC)c21 (stereo not drawn) | inconclusive: 3.16 µM [inhibitor, single point] | – | –
O=C(O)c1ccc(CN2C(=O)CSC2=S)cc1 | active: 15.8 µM | – | –
Cc1c(C(=O)O)oc2ccc(S(=O)(=O)NCc3ccc4c(c3)OCO4)cc12 | inconclusive: 0.158 µM [inhibitor, full curve, poor fit] | – | –
Cc1ccc(C2C(C#N)=C(N)Oc3c2sc2ccccc32)o1 (stereo not drawn) | inconclusive: 25.1 µM [inhibitor, partial curve, poor fit] | – | –
COc1cc(NC(=O)c2cccs2)c(C(=O)OCC(=O)NCc2ccco2)cc1OC | active: 8.91 µM | – | –
CCCCCc1ccc(OCCC[n+]2ccccc2)c(CCCCC)c1 | – | inactive: 2.63% | –
CC(N)(Cc1ccc(O)cc1)C(=O)O (stereo not drawn) | – | – | inactive
COC(C(=O)NNC(=O)CCc1ccccc1)c1ccccc1 (stereo not drawn) | inconclusive: 35.5 µM [inhibitor, single point] | – | –
NC(=O)CSc1nc2c(c(=O)n1-c1ccccc1)C1(CCCCC1)Cc1ccccc1-2 | – | inactive: -6.98% | –
CC(C)Oc1ccc(C(=O)N/N=C/c2ccc(-c3ccc(S(=O)(=O)Nc4ncccn4)cc3)o2)cc1 | inconclusive: 39.8 µM [inhibitor, single point] | – | –
Cc1ccc(-c2cc(C(=O)Nc3ccc4c(c3)OCCO4)c3ccccc3n2)cc1 | inconclusive: 0.158 µM [inhibitor, full curve, poor fit] | – | –
CCCSCCCNC(=O)c1cc2c(s1)CS(=O)(=O)C2 | inconclusive: 15.8 µM [inhibitor, partial curve, poor fit] | – | –
COCC(=O)N(C)C1(c2nnnn2CCOC(=O)Nc2cccc3ccccc23)CCCC1 | active: 31.6 µM | – | –
Cc1ccc(N2C(=O)C3C4C=CC(CNC(=S)Nc5cccc(Cl)c5)(O4)C3C2=O)cc1 (stereo not drawn) | inconclusive: 3.16 µM [inhibitor, full curve] | – | –

Structure (SMILES) | Potency | activity, negative = inhibition | outcome
CC(=O)c1ccc(S(=O)(=O)N2CCN(C(=O)/C=C/c3ccc4ccccc4n3)CC2)cc1 | active: 25.1 µM | – | –
Cc1ccc(C(=O)c2coc3ccc(OCC(=O)O)cc23)cc1 | inconclusive: 7.08 µM [inhibitor, single point] | – | –
O=c1c(-c2ccc(O)cc2)coc2cc(O)cc(O)c12 | inactive | – | –
COc1ccc(NC(=O)N2CCc3nc(-c4ccccc4)c4c(c3C2)CO[C@@H](C)C4)cc1 | inconclusive: 7.08 µM [inhibitor, single point] | – | –
COc1ccc(Cl)cc1CN1CCN(c2nc(C)cc(C)c2C#N)CC1 | inconclusive: 39.8 µM [inhibitor, single point] | – | –
Nc1cc2nsnc2cc1Br | inconclusive: 39.8 µM [inhibitor, single point] | – | –
CCCCC1=CC2=C(c3ccco3)C(=O)C(C)(OC(=O)c3ccc(OC)cc3)C(=O)C2=CN1Cc1ccc2c(c1)OCO2 (stereo not drawn) | inconclusive: 1.41 µM [inhibitor, single point] | – | –
COc1ccc2nc(C)cc(SCC(=O)N/N=C/c3ccc(O)c(O)c3)c2c1 | inconclusive: 39.8 µM [inhibitor, single point] | – | –
O/N=C/c1ccc2cccc(O)c2n1 | – | inactive: 9.79% | –
O=C(Nc1cccc(Cl)c1)Nc1ccccc1NS(=O)(=O)c1cccs1 | inconclusive: 8.91 µM [inhibitor, partial curve] | – | –
Cc1cc(C)cc(Oc2nc3c(C)cccn3c(=O)c2/C=C(\C#N)C(=O)NC2CCS(=O)(=O)C2)c1 (stereo not drawn) | inconclusive: 7.08 µM [inhibitor, single point] | – | –
Cc1ccccc1C(=O)NNC(=O)CCc1ccccc1 | inconclusive: 12.6 µM [inhibitor, partial curve, poor fit] | – | –
CC(N=Cc1cccc(O)c1O)c1ccccc1 (stereo not drawn) | active: 22.4 µM | – | –
CCCCCOc1ccc(/C=c2\sc3nc(=O)c(-c4ccccc4)nn3c2=O)cc1OC | – | inactive: -16.2% | –
Cc1ccc(Cl)cc1NC(=O)c1cnn2c1NC(c1ccco1)CC2C(F)(F)F (stereo not drawn) | inconclusive: 14.1 µM [inhibitor, partial curve] | – | –
CC(=O)NC1=NC(=O)/C(=C/c2cc(C)n(-c3cccc(C(=O)O)c3)c2C)S1 | inconclusive: 25.1 µM [inhibitor, single point] | – | –
CC(=O)O[C@H]1CC(C)(C)C(=C=C/C(C)=C/C=C/C(C)=C/C=C/C=C(C)/C=C/C=C(\C)C(=O)C[C@@]23O[C@]2(C)C[C@@H](O)CC3(C)C)[C@](C)(O)C1 | inconclusive: 0.355 µM [inhibitor, partial curve, poor fit] | – | –
NC(=O)c1ccc(N=Cc2ccc([N+](=O)[O-])s2)cc1 | inconclusive: 39.8 µM [inhibitor, single point] | – | –
Cc1ccc2[nH]c3c(c2c1)CCCC3C(N)=O (stereo not drawn) | inconclusive: 7.08 µM [inhibitor, single point] | – | –
Cc1cccc(N2NC(=O)/C(=C/c3ccc(-c4ccc(Cl)c(C(=O)O)c4)o3)C2=O)c1 | inconclusive: 31.6 µM [inhibitor, single point] | – | –
Cc1cc(/C=N/NC(=O)C(O)(c2ccccc2)c2ccccc2)c(C)n1-c1ccc(C(=O)O)cc1 | inconclusive: 35.5 µM [inhibitor, single point] | – | –
CC(C)C(=O)Nc1ccc(N2CCCC2)c(Cl)c1 | inconclusive: 0.251 µM [inhibitor, full curve] | – | –

Reformatted: entries from further up
O=c1c(-c2ccc(O)cc2)coc2cc(O)cc(O)c12
  Potency: inactive
CC(=O)NC1=NC(=O)/C(=C/c2cc(C)n(-c3cccc(C(=O)O)c3)c2C)S1
  Potency: inconclusive: 25.1 µM [inhibitor, single point]

(list continues)

Structure (SMILES) | Potency | activity, negative = inhibition | outcome
CC(=O)c1ccc(NC(=O)CSc2ccsc2[N+](=O)[O-])cc1 | inconclusive: 39.8 µM [inhibitor, single point] | – | –
O=C(Nc1nc(-c2ccco2)cs1)c1ccccc1 | – | inactive: -22.1% | –
CCN(CC)S(=O)(=O)c1ccc(C)c(NC(=O)/C=C/c2cccs2)c1 | inconclusive: 35.5 µM [inhibitor, partial curve] | – | –
O=C1CSC(=S)N1c1cccnc1 | active: 31.6 µM | – | –
C[C@H](NC(=O)N1CCc2nc(-c3ccccc3)c3c(c2C1)CO[C@@H](C)C3)c1ccccc1 | – | inactive: -16.8% [at 11.5 µM] | –
O=C1CC(c2ccco2)CC(O)=C1C=NCCO (stereo not drawn) | – | – | inactive
CCCCCC(=O)N1CC2(CC(c3cccc(NC(=O)c4ccccc4)c3)=NO2)C[C@@H]1C(N)=O (stereo partly drawn) | inconclusive: 7.08 µM [inhibitor, single point] | – | –
CCOc1ccc(NC(C)C(=O)N/N=C/c2ccc([N+](=O)[O-])cc2)cc1 (stereo not drawn) | inconclusive: 7.08 µM [inhibitor, partial curve, poor fit] | – | –
CCOc1ccc2oc(-c3ccccc3)c(C(=O)O)c2c1 | inconclusive: 35.5 µM [inhibitor, single point] | – | –
CC(C)(C)CN1CCNC(=O)C1CC(=O)NC1Cc2ccccc2C1 (stereo not drawn) | inconclusive: 0.178 µM [inhibitor, full curve] | – | –
O=C(O)c1cccc(-c2ccc(/C=N/NC(=O)C3COc4ccccc4O3)o2)c1 (stereo not drawn) | – | inactive: -2.35% | –
COc1ccc(NC(=O)c2cc3c(-c4ccc(OC)c(OC)c4)nn(C)c3s2)cc1OC | – | inactive: 18.1% | –
COc1cc(OC)cc(C(=O)NC(C(=O)NCCN(C)C)C23CC4CC(CC(C4)C2)C3)c1 (stereo not drawn) | inconclusive: 2.51 µM [inhibitor, full curve, poor fit] | – | –
Cc1cc(=O)c2c(O)c3c(O)cc(O)c4c5c(O)cc(O)c6c(O)c7c(=O)cc(C)c8c1c2c(c34)c(c65)c78 | active: 0.562 µM | – | –
O=C1N/C(=N/O)S/C1=C/c1cccnc1 | – | – | inactive
Cc1ccccc1NC(=O)CC1SC(=NC2CCCCC2)NC1=O (stereo not drawn) | inconclusive: 0.631 µM [inhibitor, full curve] | – | –
Cc1c(/C=N\NC(=O)C2COc3ccc(C(C)(C)C)cc3O2)c2ccccc2n1C (stereo not drawn) | active: 28.2 µM | – | –
CCC(C)c1ccccc1NC(=O)Cc1coc2cc3c(cc12)CCC3 (stereo not drawn) | inconclusive: 31.6 µM [inhibitor, partial curve] | – | –
COC(=O)c1ccc(COc2ccc(/C=C(\C#N)c3nc4ccccc4[nH]3)cc2OC)o1 | inconclusive: 39.8 µM [inhibitor, single point] | – | –
CC(C)NS(=O)(=O)c1ccc(NC(=S)NC(=O)c2ccc(-c3ccccc3)cc2)cc1 | inconclusive: 35.5 µM [inhibitor, single point] | – | –
CC1CCN(C(=S)Nc2ccc(SC(F)F)cc2)CC1 | inconclusive: 3.98 µM [inhibitor, full curve] | – | –
O=C(Nc1ccc(O)c2c(=O)cc(-c3ccccc3Cl)oc12)c1cccs1 | inconclusive: 2.51 µM [inhibitor, partial curve] | – | –

Among those listed so far, two contain a tert-butyl group:
Structure (SMILES) | Potency | activity, negative = inhibition | outcome
CC(C)(C)CN1CCNC(=O)C1CC(=O)NC1Cc2ccccc2C1 (stereo not drawn) | inconclusive: 0.178 µM [inhibitor, full curve] | – | –
Cc1c(/C=N\NC(=O)C2COc3ccc(C(C)(C)C)cc3O2)c2ccccc2n1C (stereo not drawn) | active: 28.2 µM | – | –
